Experimental data: paper PMC4227767, “Dye label interference with RNA modification reveals 5-fluorouridine as non-covalent inhibitor”

Experiments:
[1] = molecular target: T1, TruB (tmTruB), tRNA pseudouridine-55 synthase (Thermotoga maritima) (UniProt Q9WZW0); test: fluorescence titration (spectral shifts, lifetime/anisotropy); settings: average over three titration curves, 200 nM tRNA, text prints 'U55-tRNA', U33-U55 from context; 5-aminohexyl-3-acrylimido-uridine at U33; recombinant protein; label: Cy5 at U33 (internal); letters put together from the description
T1 sequence (looked up, limits assumed): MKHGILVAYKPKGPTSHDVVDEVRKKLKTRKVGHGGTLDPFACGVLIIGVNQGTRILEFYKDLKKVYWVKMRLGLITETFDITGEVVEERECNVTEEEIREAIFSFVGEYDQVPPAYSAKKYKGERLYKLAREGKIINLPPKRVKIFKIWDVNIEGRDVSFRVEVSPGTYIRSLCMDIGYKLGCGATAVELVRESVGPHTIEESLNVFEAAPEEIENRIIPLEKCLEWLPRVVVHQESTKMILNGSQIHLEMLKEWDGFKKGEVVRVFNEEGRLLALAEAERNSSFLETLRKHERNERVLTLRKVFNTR

[2] = molecular target: T1, TruB (tmTruB), tRNA pseudouridine-55 synthase (Thermotoga maritima); test: SDS-PAGE gel shift; settings: no SDS-stable complex (complex specific for 5FU55), denaturing conditions, binds under native conditions; recombinant protein; letters put together from the description

Sequence	Kd [1] [nM]	binding result [2]
GCGGAUUUAGCUCAGUUGGGAGAGCGCCAGACUGAAGAUCUGGAGGUCCUGUGUUCGAUCCACAGAAUUCGCACCA [U33-U55-tRNA (Cy5 at U33)]	30.7	–
GCGGAUUUAGCUCAGUUGGGAGAGCGCCAGACUGAAGAUCUGGAGGUCCUGUGUUCGAUCCACAGAAUUCGCACCA [U55-tRNA (unlabeled transcript)]	–	no binding

Construct, isoform or probe ends are uncertain for at least one entry. For some assays here: No signal at the amounts used counts as a negative. Protein sequences can lack the tags named with them.
